Experimental findings from patent publication US10676507B2 (GemVax & KAEL CO., LTD., priority 2015, dated 2020) are described below.

The nature of this series: general procedure: Fmoc solid-phase peptide synthesis; 2-chloro-Trityl Resin; HBTU/HOBt/NMM. The note with it: whole synthesis, analytical HPLC.

End groups of sequences in plain letters are not given here.

For the sequence ALSSRLRA, the “final HPLC purity” value is 95% purity or higher.
